# Reference: publication PMC10731658 (Chemical Research in Toxicology, 2023)
# Test system: HepG2 cells
# Test: Colorimetric MTT cell viability assay, 24 h
# Settings: relative to K048 IC50 of 30.60 mmol/L
structure (smiles),measurement,value
"O/N=C/c1cc[n+](CCCC[n+]2ccc(/C=N/O)cc2)cc1 [K074, 1,1′-(butane-1,4-diyl)bis(4((hydroxyimino)methyl)pyridine-1-ium) dibromide]",fold lower IC50 than K048,1.13 fold
